From PubChem BioAssay AID624297 (National Center for Advancing Translational Sciences (NCATS), 2012)
Values joined by “and” are separate entries in the source; they are usually repeats but may differ in a detail not shown here. Equal values may be shown once. Among all 340,000 compounds or so, about 6,200 (1.8%) were called active. Inconclusive means that the source gave no clear call. Such entries were picked first, then a sample of the others. Calls follow the shape of the dose curve; as a rule, active = well fitted activation curve with a large enough effect; inconclusive = small, poorly fitted or top-dose-only effect; inactive = no such curve, though single readings can be large or run the other way. Potencies of inconclusive entries are doubtful fits and often do not repeat. Some structures have more than one record in an assay (separate samples or runs), and their calls can disagree.

Experiment: A quantitative high throughput screen for small molecules that induce DNA re-replication in SW480 colon adenocarcinoma cells. Also: nearly all actives have a fitted effect of over 55% in size. As to re-replication activation: % of control where 0% means no effect.
Conditions: Hoechst DNA content imaging, 48 h; re-replication activation: at 46.1 µM (top of the series) unless noted
In short: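 Treated cells incubate 48 hr (37 C, 5% CO2), are stained 40 min with Hoechst, and nuclear fluorescence is enumerated; a rise in nuclei with high DNA signal marks re-replication.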
Potency is read from the fitted curve at half-maximal effect.

Structure (SMILES) | re-replication activation | Potency
O=C(c1ccc2nc(-c3ccccc3)c(-c3ccccc3)nc2c1)N1CCCCC1 | inactive: -18.1% | –
O=C(Nc1ccon1)c1csc2c1CCCC2 | inactive: -0.416% | –
CC(=O)Nc1ccc(OS(=O)(=O)c2ccc(Cl)cc2)cc1 | inactive: 12.9% | –
CCOC(=O)C1=C(CCc2ccccc2)NC(=O)NC1c1ccc(Br)cc1 (stereo not given) | – | inconclusive: 6.51 µM [activator, single point]
CC(=O)c1ccc(Nc2cc(C)nc3ccc(C)cc23)cc1 | – | inconclusive: 29.1 µM [activator, single point]
O=c1c2cc3c(cc2[nH]c(=S)n1C1CCN(Cc2ccccc2)CC1)OCO3 | – | inconclusive: 0.13 µM [activator, full curve, poor fit]
Cn1c(=O)c(NCCc2ccccc2)c2c3c(cccc31)C(=O)c1ccccc1-2 | – | active: 18.4 µM
CCN1CCN(c2c(S(=O)(=O)c3ccc(C)c(C)c3)cnc3ccc(F)cc23)CC1 | – | inconclusive: 13 µM [activator, partial curve, poor fit]
COc1ccc(/C=N/n2cc(-c3ccccc3)nc2N)cc1 | – | inconclusive: 18.4 µM [activator, single point]
CCOc1cccc(CN2CCC(n3nccc3NC(=O)CCCc3ccccc3)CC2)c1 | – | inconclusive: 2.59 µM [activator, full curve, poor fit]
O=C1/C(=N\S(=O)(=O)c2cccs2)C([n+]2cccc(Cc3ccccc3)c2)=C([O-])c2ccccc21 | – | active: 8.2 µM
CC(C)(C)S(=O)(=O)c1cnc2c(S(=O)(=O)c3ccccc3)cnn2c1N | – | inconclusive: 0.146 µM [activator, full curve, poor fit]
COc1ccc(Br)cc1CNc1ccc(O)cc1 | – | inconclusive: 29.1 µM [activator, single point]
CCOc1ccc(C(NC(=O)c2ccco2)c2ccc(OC)c(OC)c2)cc1 (stereo not given) | – | inconclusive: 25.9 µM [activator, single point]
COc1ccc(S(=O)(=O)Nc2ccc3c(c2)n(C)c(=O)n3C)cc1OC | – | inconclusive: 6.51 µM [activator, partial curve, poor fit]
CC(=O)OCC(=O)[C@@]12OC3(CCCC3)O[C@@H]1C[C@H]1[C@@H]3CCC4=CC(=O)C=C[C@]4(C)[C@@]3(F)[C@@H](O)C[C@@]12C | – | inactive and active: 259 nM
Cc1c(N)ccc(-n2nc3ccccc3n2)c1C | – | inconclusive: 14.6 µM [activator, single point]
CCC(=O)N(C1=C(NC)C(=O)c2ccccc2C1=O)C(C)C | – | inconclusive: 23.1 µM [activator, single point]
CCCN(C(=O)c1ccco1)c1nnc(-c2ccccc2C)s1 | inactive: -146% | –
CCOC(=O)CN1C(=O)/C(=C/c2ccccc2Br)Oc2ccccc21 | – | inconclusive: 14.6 µM [activator, single point]
CCCN(c1ccc(OCC)cc1)S(=O)(=O)c1ccc2c(c1)NC(=O)CO2 | – | inconclusive: 29.1 µM [activator, single point]
COC(=O)C(C)SC1=N/C(=C/c2ccc(-n3cncn3)cc2)C(=O)N1 (stereo not given) | – | inconclusive: 20.6 µM [activator, single point]

Structure (SMILES) | re-replication activation | Potency
CCOC(=O)C1CCN(c2ncnc3c2c(-c2ccccc2)cn3-c2ccccc2)CC1 | – | inconclusive: 25.9 µM [activator, partial curve, poor fit]
CN(C)C(=C(C#N)C#N)N1CCN(c2ccc(Cl)cc2)CC1 | – | inconclusive: 1.03 µM [activator, full curve, poor fit]
CCSC1(SCC)N=C(N)C2(C#N)C(c3ccc(OC)c(OC)c3OC)C12C#N (stereo not given) | – | inconclusive: 29.1 µM [activator, single point]
O=c1c(Cl)c(Cl)cnn1Cc1nnc(-c2ccc(Cl)cc2)o1 | – | active: 3.66 µM
COc1ccc(C(=O)NC(=S)Nc2cccnc2)cc1OC | inactive: -13.1% | –
COc1cccc(C(=O)N/N=C/C(Br)=C/c2ccccc2)c1 | – | inconclusive: 18.4 µM [activator, single point]
Cc1ccc(S(=O)(=O)N2CCCOC2CNC(=O)C(=O)NCc2cccnc2)cc1 (stereo not given) | – | inconclusive: 6.51 µM [activator, partial curve, poor fit]
COc1cc(OC)c(OC)cc1/C=N/N(C)c1ccccc1 | inactive: -1.82% | –
COc1ccc(OC)c2c1C(=O)C(Cl)=C(Cl)C2=O | – | inconclusive: 3.66 µM [activator, full curve, poor fit]
O=C(Cc1ccccn1)c1ccc(Cl)cc1 | inactive: -2.25% | –
CC1CCCCC1NC(=O)CN1C(=O)CSc2cc(S(=O)(=O)N3CCCCCC3)ccc21 (stereo not given) | – | inconclusive: 29.1 µM [activator, single point]
CCN(C[C@H]1N[C@@](CC)(C(=O)OC)[C@H]2C(=O)N(C)C(=O)[C@@H]12)S(=O)(=O)c1ccc(-c2ccccc2)cc1 | – | inconclusive: 1.16 µM [activator, full curve]
CCn1cc(C2=NCC(C)O2)c2ccccc21 (stereo not given) | – | inconclusive: 32.6 µM [activator, partial curve, poor fit]
CCCCOC1CC(c2ccc(OCc3ccc(OC)cc3)c(OC)c2)N(C)O1 (stereo not given) | – | inconclusive: 3.66 µM [activator, partial curve, poor fit]
c1ccc(CNc2nc(-c3cccnc3)nc3ccccc23)cc1 | inactive: 24.1% | –
O=[N+]([O-])c1cc([N+](=O)[O-])c(Oc2c(F)cc(F)cc2F)cc1NN1CCCCC1 | inactive: -2.82% | –
COc1ccc(C(=O)NC(=O)COC(=O)CCS(=O)(=O)c2ccc(C)cc2)cc1 | – | inconclusive: 23.1 µM [activator, single point]
CCc1ccc(NC(=O)CSc2nc3n[nH]c(C)c3c(=N)n2-c2cccc(OC)c2)cc1 | inactive: 19.5% | –
CN1CCN(c2ccc(NC(=O)c3ccc(-c4cccc([N+](=O)[O-])c4)o3)cc2)CC1 | – | inconclusive: 20.6 µM [activator, single point]
CCOc1cc(/C=N/N=C(\N)c2nonc2N)cc(Br)c1OCc1cccc2ccccc12 | – | inconclusive: 16.4 µM [activator, partial curve, poor fit]
CN(C)C=Nc1ncc2c3ccccc3n(Cc3ccccc3)c2c1C#N | – | inconclusive: 29.1 µM [activator, single point]
Cc1cc(C(=O)N/N=C/c2cc(Br)ccc2OC(=O)c2ccccc2Cl)n[nH]1 | – | active: 7.31 µM

Structure (SMILES) | re-replication activation | Potency
CCOc1ccc(CCNC(=O)COC(=O)c2ccc(S(=O)(=O)N3CCCC3)cc2)cc1OCC | – | inconclusive: 25.9 µM [activator, partial curve, poor fit]
Cc1ccccc1S(=O)(=O)Cc1ccc(C(=O)NCCCN2CCCC(C)C2)o1 (stereo not given) | – | inconclusive: 6.51 µM [activator, single point]
CC1CCC(O)C/C1=C\C=C1/CCCC2(C)C1CCC2C(C)/C=C/C(C)C(C)C (stereo not given) | – | inconclusive: 13.3 µM [activator, single point]
O=C1/C(=C/c2ccc(N3CCOCC3)o2)SC(=Nc2ccccc2)N1CCc1c[nH]c2ccccc12 | – | inconclusive: 25.9 µM [activator, single point]
Cc1ccc(-c2cc(C(F)F)nc(S(C)(=O)=O)n2)cc1 | – | inconclusive: 0.82 µM [activator, full curve, poor fit]
O=C(CCc1ccccc1)N=C1SC2CS(=O)(=O)CC2N1c1cccc(F)c1 (stereo not given) | – | inconclusive: 32.6 µM [activator, partial curve, poor fit]
O=C(Nc1nncs1)c1cc2c(s1)CCC2 | inactive: -1.39% | –
CC12CCC(C(=O)N3CCN(C(c4ccccc4)c4ccccc4)CC3)(OC1=O)C2(C)C (stereo not given) | – | inconclusive: 20.6 µM [activator, partial curve, poor fit]
Oc1ccc(/C=N/Nc2nc(-c3ccccc3F)nc3ccccc23)c(O)c1 | – | inconclusive: 20.6 µM [activator, single point]
CC(C)c1ccccc1NC(=S)NC(C)c1ccccc1 (stereo not given) | – | inconclusive: 18.4 µM [activator, single point]
O=[N+]([O-])c1ccc(N/N=C/c2cccc(O)c2O)cc1 | – | inconclusive: 18.4 µM [activator, single point]
O=C(Nc1ccc2c(c1)OCO2)C1CC(=O)N(c2ccc(F)cc2)C1 (stereo not given) | inactive: -1.92% | –
COc1ccc(Cc2nc(=S)[nH][nH]2)cc1Br | – | inconclusive: 0.731 µM [activator, full curve, poor fit]
CCCOc1ccc(-c2c(C(=O)N/N=C/c3cccs3)nnn2-c2nonc2N)cc1 | inactive: 0.862% | –
CCOC(=O)CC1COCCN1C(=O)CCc1nnc(-c2ccsc2)o1 (stereo not given) | inactive: -5.23% | –
O=c1c2ccccc2[nH]c(=S)n1CCCN1CCN(c2ccccc2F)CC1 | – | inconclusive: 2.06 µM [activator, partial curve, poor fit]
Cc1cccc(C)c1Nc1c(-c2ccc(N3CCOCC3)cc2)nc2cnccn12 | – | inconclusive: 29.1 µM [activator, single point]
Fc1ccc(-[n+]2nc(Nc3ccccc3)sc2-c2c3ccccc3cc3ccccc23)cc1 | inactive: -21.8% [at 9.22 µM] | –
CCC1CCCCN1S(=O)(=O)c1ccc(C(=O)Nc2nnc(C3CC3)o2)cc1 (stereo not given) | – | inconclusive: 25.9 µM [activator, single point]
Cc1ccc(NS(=O)(=O)c2cc(C(=O)NCCCN(C)C)ccc2Cl)cc1Cl | – | inconclusive: 0.731 µM [activator, full curve]
Cc1c(C(c2ccc(Br)cc2)c2c(C)n(C)n(-c3ccccc3)c2=O)c(=O)n(-c2ccccc2)n1C | – | inconclusive: 29.1 µM [activator, single point]
